# Source: PubChem BioAssay AID540276 (National Center for Advancing Translational Sciences (NCATS), 2011)
# Out of some 300,000 compounds screened, about 5,400 (1.8%) were called active. These results got no clear call from the source, so the numbers are uncertain. Calls come from the whole dose curve; tested in HEK293 cells. Some results for these compounds are left out of this collection, so the calls shown say nothing about other tests.
# Assay: qHTS for inhibitors of binding or entry into cells for Marburg Virus
# Conditions: Marburg virus pseudotyped entry inhibition, cell reporter
# Potency is the fitted concentration of half-maximal effect.
row,Compound,Potency
1,COc1cccc(C(=O)NCC2(N3CCCCC3)CCCCC2)c1,inconclusive: 3.55 µM
2,CN(C)C1(CNC(=O)c2ccc(Br)cc2)CCCCC1,inconclusive: 8.91 µM
3,CN(C)C1(CNC(=O)c2ccccc2F)CCCCC1,inconclusive: 0.562 µM
4,O=C(NCC1(N2CCCCC2)CCCCC1)c1cccc(Br)c1,inconclusive: 12.6 µM
5,CCN1CCCC(OC(=O)C2(O)c3ccccc3C=Cc3ccccc32)C1 (stereo not drawn),inconclusive: 25.9 µM
6,Cc1cc(C(=O)NCC2(N3CCCCC3)CCCCC2)ccc1[N+](=O)[O-],inconclusive: 6.31 µM
7,CCOc1cccc(C(=O)NCC2(N(C)C)CCCCC2)c1,inconclusive: 1.26 µM
8,CCCCOc1ccccc1C(=O)NCC1(N(C)C)CCCCC1,inconclusive: 11.2 µM
